Some of these results come from one statement about several compounds together. For at least one compound, name, drawing or mass did not settle the structure.
Tested on: human colon tumour cell line HT29
Assay: Cellular Assay (phosphohistone H3 Ser10 mitotic marker, HT29)
Assay type: cell-based
Settings: HT29 cells, 24 h

COc1cc(C(=O)N[C@H]2C[C@H]3CCC[C@@H](C2)N3C)ccc1Nc1ncc2c(n1)N(C1CCCC1)CC1(CC1)C(=O)N2 [Example 280, 4-(9′-cyclopentyl-6′-oxo-5′,6′,8′,9′-tetrahydrospiro[cyclopropane-1,7′-pyrimido[5,4-b][1,4]diazepine]-2′-ylamino)-3-methoxy-N-((1R,3r,5S)-9-methyl-9-azabicyclo[3.3.1]nonan-3-yl)benzamide] and COc1cc(C(=O)NC2C[C@H]3CCC[C@@H](C2)N3C)ccc1Nc1ncc2c(n1)N(C1CCCC1)CC(C)(C)C(=O)N2C (stereo partly drawn) [Example 354, 4-[(2-cyclopentyl-4,4,6-trimethyl-5-oxo-2,6,9,11-tetrazabicyclo[5.4.0]undeca-8,10,12-trien-10-yl)amino]-3-methoxy-N-[(1S,5R)-9-methyl-9-azabicyclo[3.3.1]non-7-yl]benzamide] cannot be ordered by IC50: < 300 nM for the first, < 300 nM for the second.

COc1cc(NCCN2CCCC2)ccc1Nc1ncc2c(n1)N(C1CCCC1)CCC(=O)N2C [Example 103, 6-cyclopentyl-9-[[2-methoxy-4-(2-pyrrolidin-1-ylethylamino)phenyl]amino]-2-methyl-2,6,8,10-tetrazabicyclo[5.4.0]undeca-8,10,12-trien-3-one] and COc1cc(C(=O)NCCN2CCCC2)ccc1Nc1ncc2c(n1)N(C1CCCC1)CCC(=O)N2C [Example 16, 4-[(6-cyclopentyl-2-methyl-3-oxo-2,6,8,10-tetrazabicyclo[5.4.0]undeca-8,10,12-trien-9-yl)amino]-3-methoxy-N-(2-pyrrolidin-1-ylethyl)benzamide] cannot be ordered by IC50: < 30000 nM for the first, < 300 nM for the second.

CNC(=O)c1ccc(Nc2ncc3c(n2)N(C2CCCC2)CCC(=O)N3C)c(OC)c1 [Example 91, 4-[(6-cyclopentyl-2-methyl-3-oxo-2,6,8,10-tetrazabicyclo[5.4.0]undeca-8,10,12-trien-9-yl)amino]-3-methoxy-N-methyl-benzamide] and COCCN1CCC(=O)N(C)c2cnc(Nc3ccc(C(=O)NC4CCN(C)CC4)cc3OC)nc21 [Example 229, 3-methoxy-4-[[6-(2-methoxyethyl)-2-methyl-3-oxo-2,6,8,10-tetrazabicyclo[5.4.0]undeca-8,10,12-trien-9-yl]amino]-N-(1-methyl-4-piperidyl)benzamide] cannot be ordered by IC50: < 300 nM for the first, < 30000 nM for the second.

COc1cc(C(=O)NC2C[C@H]3CCC[C@@H](C2)N3C)c(F)cc1Nc1ncc2c(n1)N(C1CCCC1)CC(C)(C)C(=O)N2C (stereo partly drawn) [Example 352, 4-[(2-cyclopentyl-4,4,6-trimethyl-5-oxo-2,6,9,11-tetrazabicyclo[5.4.0]undeca-8,10,12-trien-10-yl)amino]-2-fluoro-5-methoxy-N-[(1S,5R)-9-methyl-9-azabicyclo[3.3.1]non-7-yl]benzamide] and CCC1(CC)CN(C2CCCC2)c2nc(Nc3cc(F)c(C(=O)NC4C[C@H]5CCC[C@@H](C4)N5C)cc3OC)ncc2N(C)C1=O (stereo partly drawn) [Example 378, 4-[(2-cyclopentyl-4,4-diethyl-6-methyl-5-oxo-2,6,9,11-tetrazabicyclo[5.4.0]undeca-8,10,12-trien-10-yl)amino]-2-fluoro-5-methoxy-N-[(1S,5R)-9-methyl-9-azabicyclo[3.3.1]non-7-yl]benzamide] cannot be ordered by IC50: < 300 nM for the first, < 300 nM for the second.
